The list shows only some results of the screen, not a fair sample: it is rich in T/C values a quarter to a half above the control, in often repeated tests (any T/C) and in doses without a T/C. Other doses and runs of a compound stand elsewhere. T/C is the treated group as % of the vehicle group. Some entries give survivors of the animals treated and no T/C: the source files T/C as zero there, which appears to mark a toxic dose or a test without result, not a measured value. Some doses without a T/C left all or most animals alive at the check, yet need not have been tolerated: survival well below the control is almost never listed, so the zero probably covers shortened survival too. Counts of survivors are from the toxicity check (mostly the fifth day) where no day follows; animals may have died later. Schedules are NCI's codes, read here as Q, the interval in days (D) or hours (H), X, the number of doses. Some entries hold several experiments; the values are given in rising order. Additions like (4×) give the number of equal values in this list. Where survival is the endpoint, this PubChem deposit counts one and a half times the control or more as active, and values a quarter to a half above the control carry no call in these data; other NCI protocols may use other cut-offs.
Test system: L1210 leukemia ip in BDF1 mice, survival T/C
Assay: NCI In Vivo Anticancer Drug Screen. Data for tumor model L1210 Leukemia (intraperitoneal) in B6D2F1 (BDF1) mice
Details: T/C endpoint: mean survival time, higher T/C = longer survival
[1] = dose: 50.0 mg/kg/injection, schedule: Q04DX003 (ip), vehicle: saline with Tween-80
[2] = dose: 100.0 mg/kg/injection, schedule: Q01DX009 (ip), vehicle: saline with Tween-80
[3] = dose: 100.0 mg/kg/injection, schedule: Q04DX003 (ip), vehicle: saline with Tween-80
[4] = dose: 100.0 mg/kg/injection, schedule: Q04DX003 (ip), vehicle: saline
[5] = dose: 200.0 mg/kg/injection, schedule: Q01DX009 (ip), vehicle: saline with Tween-80
[6] = dose: 200.0 mg/kg/injection, schedule: Q04DX003 (ip), vehicle: saline
[7] = dose: 400.0 mg/kg/injection, schedule: Q04DX003 (ip), vehicle: saline
[8] = dose: 400.0 mg/kg/injection, schedule: Q04DX002 (ip), vehicle: Klucel (hydroxypropylcellulose) (HPC)
[9] = dose: 300.0 mg/kg/injection, schedule: Q01DX001 (ip), vehicle: saline
[10] = dose: 200.0 mg/kg/injection, schedule: Q01DX001 (ip), vehicle: saline
[11] = dose: 400.0 mg/kg/injection, schedule: Q01DX001 (ip), vehicle: saline
[12] = dose: 200.0 mg/kg/injection, schedule: Q04DX003 (ip), vehicle: saline with Tween-80
[13] = dose: 400.0 mg/kg/injection, schedule: Q04DX003 (ip), vehicle: saline with Tween-80
[14] = dose: 100.0 mg/kg/injection, schedule: Q04DX003 (ip), vehicle: Klucel (hydroxypropylcellulose) (HPC)
[15] = dose: 400.0 mg/kg/injection, schedule: Q04DX002 (ip), vehicle: saline
[16] = dose: 200.0 mg/kg/injection, schedule: Q04DX003 (ip), vehicle: Klucel (hydroxypropylcellulose) (HPC)
[17] = dose: 400.0 mg/kg/injection, schedule: Q04DX003 (ip), vehicle: Klucel (hydroxypropylcellulose) (HPC)

`O=C1CCSC(=O)N1SC(Cl)(Cl)Cl` was tested, and the survivor count [1] was 3 of 6, the survivor count [2] was 0 of 6 and the survivor count [3] was 1 of 6. For the same compound, the survivor count [4] was 0 of 6, the survivor count [5] was 0 of 6 and the survivor count [6] was 1 of 6. For the same compound, the survivor count [7] was 0 of 6.

For `O=C(O)c1cc(Cl)c(Br)c(Cl)c1`, the survivor count [8] was 3 of 3.

In the case of `CCCP(=S)(CCC)Oc1ccc([N+](=O)[O-])cc1`, the survivor count [9] is reported as 0 of 6.

`Cc1cc(N(CCO)Cc2ccccc2)nc2ccccc12` was tested, and the survivor count (dose: 150.0 mg/kg/injection, schedule: Q01DX001 (ip), vehicle: saline) was 3 of 6 and the survivor count [9] was 0 of 6.

`CCN(CC)CCNC(c1ccccc1)C(Cl)(Cl)Cl` (stereo not drawn) was tested, and the survivor count [10] was 2 of 4 and the survivor count [11] was 0 of 4.

With `Oc1ccc2ccccc2c1CNc1ccccc1` the survivor count (dose: 400.0 mg/kg/injection, schedule: Q04DX003 (ip), vehicle: other) was 0 of 3.

`CCOC(C(=O)OC1CCN(C)CC1)(c1ccccc1)c1ccccc1` was tested, and the survivor count [12] was 1 of 6 and the survivor count [13] was 0 of 6.

For `O=C(NCNC(=O)c1ccccc1)c1ccccc1`, the survivor count (dose: 100.0 mg/kg/injection, schedule: Q01DX009 (ip), vehicle: Klucel (hydroxypropylcellulose) (HPC)) was 6 of 6.

With `O=C(OCCN1CCCCC1)C(c1ccccc1)C1(O)CCCC1` (stereo not drawn) the survivor count (dose: 200.0 mg/kg/injection, schedule: Q01DX009 (ip), vehicle: saline) was 2 of 6.

For `Cc1ccc2nc3c4ccccc4scc-3c2c1`, the survivor count (dose: 200.0 mg/kg/injection, schedule: Q04DX003 (ip), vehicle: acetone) was 4 of 6 and the survivor count (dose: 400.0 mg/kg/injection, schedule: Q04DX003 (ip), vehicle: acetone) was 1 of 6.

With `O=C(c1ccccc1)c1c(-c2ccccc2)c(-c2ccccc2)n(-c2ccccc2)c1C(=O)c1ccccc1` the survivor count (dose: 75.0 mg/kg/injection, schedule: Q01DX001 (ip), vehicle: carboxymethylcellulose (CMC)) was 4 of 4.

With `c1ccc(CCc2nccc3ccccc23)cc1` the survivor count [9] was 0 of 6.

With `Nc1ncn(C2CC(O)C(CO)O2)c(=O)n1` (stereo not drawn) the T/C (dose: 0.03 mg/kg/injection, schedule: Q01DX005 (ip), vehicle: saline) was 148 % of control, the T/C (dose: 0.08 mg/kg/injection, schedule: Q01DX005 (ip), vehicle: saline) was 141 % of control and the T/C (dose: 0.19 mg/kg/injection, schedule: Q01DX005 (ip), vehicle: saline) was 149 % of control. The T/C (dose: 0.39 mg/kg/injection, schedule: Q01DX005 (ip), vehicle: saline) was 131 % of control, the survivor count (dose: 6.25 mg/kg/injection, schedule: Q01DX005 (ip), vehicle: saline) was 6 of 6 and the survivor count (dose: 12.5 mg/kg/injection, schedule: Q01DX005 (ip), vehicle: saline) was 6 of 6. For the same compound, the survivor count (dose: 25.0 mg/kg/injection, schedule: Q01DX005 (ip), vehicle: saline) was 6 of 6, the survivor count (dose: 50.0 mg/kg/injection, schedule: Q01DX005 (ip), vehicle: saline) was 6 of 6 and the survivor count (dose: 100.0 mg/kg/injection, schedule: Q01DX005 (ip), vehicle: saline) was 5 of 6. For the same compound, the T/C (dose: 133.0 mg/kg/injection, schedule: Q04DX003 (ip), vehicle: saline) was 143 % of control, the T/C [10] was 132 % of control and the survivor count (dose: 200.0 mg/kg/injection, schedule: Q01DX005 (ip), vehicle: saline) was 5 of 6. For the same compound, the T/C [6] was 148 % of control, the survivor count (dose: 300.0 mg/kg/injection, schedule: Q01DX005 (ip), vehicle: saline) was 5 of 6 and the survivor count [11] was 6 of 6. For the same compound, the survivor count (dose: 600.0 mg/kg/injection, schedule: Q01DX001 (ip), vehicle: saline) was 6 of 6, the T/C (dose: 5.7 micrograms/kg/injection, schedule: Q01DX005 (ip), vehicle: saline) was 141 % of control and the T/C (dose: 8.5 micrograms/kg/injection, schedule: Q01DX005 (ip), vehicle: saline) was 139 % of control.

For `CCNCCCN`, the survivor count [6] was 4 of 6 and the survivor count [7] was 0 of 6.

With `CS(=O)(=O)c1nc(Cl)nc(C(Cl)(Cl)Cl)c1Cl` the survivor count [2] was 0 of 6, the survivor count [5] was 0 of 6 and the survivor count (dose: 400.0 mg/kg/injection, schedule: Q01DX009 (ip), vehicle: saline with Tween-80) was 0 of 6.

In the case of `SC1CC[N-]CC1.SC1CC[N-]CC1.[Cl][Pt+2][Cl]`, the survivor count (dose: 400.0 mg/kg/injection, schedule: Q04DX003 (ip), vehicle: water) is reported as 2 of 6.

`C[N+](C)(C)Cc1ccccc1C=C(c1ccccc1)c1ccccc1` was tested, and the survivor count [14] was 2 of 6.

`CCN(CC)CC(=O)NCC(CCN1CCCC1)(CC(C)C)c1cccc2ccccc12` (stereo not drawn) was tested, and the survivor count [15] was 1 of 3.

In the case of `Cc1nc(Cl)c(C#N)c(C)c1[N+](=O)[O-]`, the survivor count [7] is reported as 1 of 6.

`O=C(O)C1C2CC3C(C2)C31.[Ag]` (stereo not drawn) was tested, and the survivor count (dose: 10.0 mg/kg/injection, schedule: Q01DX009 (ip), vehicle: Klucel (hydroxypropylcellulose) (HPC)) was 6 of 6, the survivor count (dose: 40.0 mg/kg/injection, schedule: Q01DX009 (ip), vehicle: Klucel (hydroxypropylcellulose) (HPC)) was 6 of 6 and the survivor count (dose: 80.0 mg/kg/injection, schedule: Q04DX003 (ip), vehicle: Klucel (hydroxypropylcellulose) (HPC)) was 2 of 6. For the same compound, the survivor count [14] was 3 of 6, the survivor count [16] was 0 of 6 and the survivor count [17] was 0 of 6.

In the case of `CCOC(=O)c1c[n]([Hg][n]2cc(C(=O)OCC)c(Nc3ccccc3Br)nc2=O)c(=O)nc1Nc1ccccc1Br`, the survivor count (dose: 25.0 mg/kg/injection, schedule: Q04DX003 (ip), vehicle: Klucel (hydroxypropylcellulose) (HPC)) is reported as 2 of 6, the survivor count [14] is reported as 0 of 6 and the survivor count [16] is reported as 0 of 6. For the same compound, the survivor count [17] was 0 of 6.

For `CC(C)(Br)C(=O)c1ccc([N+](=O)[O-])o1`, the survivor count (dose: 12.5 mg/kg/injection, schedule: Q01DX009 (ip), vehicle: saline with Tween-80) was 6 of 6, the survivor count (dose: 25.0 mg/kg/injection, schedule: Q01DX009 (ip), vehicle: saline with Tween-80) was 6 of 6 and the survivor count (dose: 50.0 mg/kg/injection, schedule: Q01DX009 (ip), vehicle: saline with Tween-80) was 6 of 6. For the same compound, the survivor count [2] was 4 of 6 and 5 of 6, the survivor count [12] was 6 of 6 and the survivor count [13] was 2 of 6.

In the case of `NCc1c(Cl)cccc1[N+](=O)[O-]`, the survivor count (dose: 400.0 mg/kg/injection, schedule: Q01DX009 (ip), vehicle: Klucel (hydroxypropylcellulose) (HPC)) is reported as 0 of 6, the survivor count [8] is reported as 1 of 6 and the survivor count [15] is reported as 0 of 3.

`CCCCN(CCCC)/N=N/c1nc[nH]c1C(=O)OC` was tested, and the survivor count (dose: 400.0 mg/kg/injection, schedule: Q01DX001 (ip), vehicle: other) was 2 of 4.

`CC(=O)N1CCC(CC[P+](c2ccccc2)(c2ccccc2)c2ccccc2)CC1` was tested, and the survivor count (dose: 25.0 mg/kg/injection, schedule: Q04DX003 (ip), vehicle: saline) was 6 of 6, the survivor count (dose: 50.0 mg/kg/injection, schedule: Q04DX003 (ip), vehicle: saline) was 6 of 6 and the survivor count [4] was 4 of 6. The survivor count [6] was 0 of 6 and the survivor count [7] was 4 of 6.

`CCN(CC)Cc1ccccc1` was tested, and the survivor count (dose: 150.0 mg/kg/injection, schedule: Q01DX001 (ip), vehicle: other) was 1 of 6 and the survivor count (dose: 300.0 mg/kg/injection, schedule: Q01DX001 (ip), vehicle: other) was 0 of 6.

`C#CCOCC(O)C[As](=O)(O)c1cccc(Cl)c1` (stereo not drawn) was tested, and the survivor count (dose: 25.0 mg/kg/injection, schedule: Q04DX003 (ip), vehicle: saline with Tween-80) was 2 of 6, the survivor count [1] was 0 of 6 and the survivor count [3] was 0 of 6 (2×). For the same compound, the survivor count [12] was 0 of 6 and the survivor count [13] was 0 of 6.

In the case of `c1ccc(CNc2cccc3c(NCc4ccccc4)cccc23)cc1`, the survivor count [12] is reported as 6 of 6 and the survivor count [13] is reported as 6 of 6.
